Results as given in article doi:10.1101/679936.
These are yes or no findings as the source states them, for the method shown. Binding seen in cells or lysates may run through a third protein. Some entries that bind do so weakly or less than the wild type. For some assays here: Tags and fused reporters may be left off the sequences shown.

T1: FLAG-SREBP1a (UniProt P36956)
T1 sequence: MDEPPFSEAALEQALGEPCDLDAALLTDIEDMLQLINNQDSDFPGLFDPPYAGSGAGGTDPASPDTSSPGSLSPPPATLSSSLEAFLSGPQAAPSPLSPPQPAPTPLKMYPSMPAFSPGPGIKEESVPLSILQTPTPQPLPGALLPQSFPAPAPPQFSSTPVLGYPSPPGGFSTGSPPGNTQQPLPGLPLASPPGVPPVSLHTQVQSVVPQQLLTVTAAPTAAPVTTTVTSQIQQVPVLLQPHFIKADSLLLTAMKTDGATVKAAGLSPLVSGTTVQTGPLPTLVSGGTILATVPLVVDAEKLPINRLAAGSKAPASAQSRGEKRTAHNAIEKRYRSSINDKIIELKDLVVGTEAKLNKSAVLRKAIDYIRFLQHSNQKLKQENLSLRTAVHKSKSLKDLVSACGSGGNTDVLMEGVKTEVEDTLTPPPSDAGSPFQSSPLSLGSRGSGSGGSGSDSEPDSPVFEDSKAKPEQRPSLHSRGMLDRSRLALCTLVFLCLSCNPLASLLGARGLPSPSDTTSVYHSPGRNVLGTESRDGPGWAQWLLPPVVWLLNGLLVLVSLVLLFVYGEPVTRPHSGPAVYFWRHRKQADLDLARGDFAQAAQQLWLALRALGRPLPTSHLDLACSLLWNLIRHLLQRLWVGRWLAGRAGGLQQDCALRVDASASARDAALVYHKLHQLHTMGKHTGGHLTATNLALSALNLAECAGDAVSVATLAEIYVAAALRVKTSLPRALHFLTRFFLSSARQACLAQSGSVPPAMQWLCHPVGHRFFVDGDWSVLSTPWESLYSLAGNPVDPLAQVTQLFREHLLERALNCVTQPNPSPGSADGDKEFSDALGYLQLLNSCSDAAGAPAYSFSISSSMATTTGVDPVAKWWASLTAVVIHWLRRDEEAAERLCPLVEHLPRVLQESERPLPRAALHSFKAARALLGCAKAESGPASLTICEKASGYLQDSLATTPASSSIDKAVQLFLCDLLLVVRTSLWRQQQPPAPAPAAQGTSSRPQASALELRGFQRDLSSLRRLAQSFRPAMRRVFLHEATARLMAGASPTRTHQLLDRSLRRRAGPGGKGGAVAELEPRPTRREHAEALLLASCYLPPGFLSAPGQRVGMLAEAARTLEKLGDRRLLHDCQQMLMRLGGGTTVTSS

T2: FLAG-SREBP2 (UniProt Q12772)
T2 sequence: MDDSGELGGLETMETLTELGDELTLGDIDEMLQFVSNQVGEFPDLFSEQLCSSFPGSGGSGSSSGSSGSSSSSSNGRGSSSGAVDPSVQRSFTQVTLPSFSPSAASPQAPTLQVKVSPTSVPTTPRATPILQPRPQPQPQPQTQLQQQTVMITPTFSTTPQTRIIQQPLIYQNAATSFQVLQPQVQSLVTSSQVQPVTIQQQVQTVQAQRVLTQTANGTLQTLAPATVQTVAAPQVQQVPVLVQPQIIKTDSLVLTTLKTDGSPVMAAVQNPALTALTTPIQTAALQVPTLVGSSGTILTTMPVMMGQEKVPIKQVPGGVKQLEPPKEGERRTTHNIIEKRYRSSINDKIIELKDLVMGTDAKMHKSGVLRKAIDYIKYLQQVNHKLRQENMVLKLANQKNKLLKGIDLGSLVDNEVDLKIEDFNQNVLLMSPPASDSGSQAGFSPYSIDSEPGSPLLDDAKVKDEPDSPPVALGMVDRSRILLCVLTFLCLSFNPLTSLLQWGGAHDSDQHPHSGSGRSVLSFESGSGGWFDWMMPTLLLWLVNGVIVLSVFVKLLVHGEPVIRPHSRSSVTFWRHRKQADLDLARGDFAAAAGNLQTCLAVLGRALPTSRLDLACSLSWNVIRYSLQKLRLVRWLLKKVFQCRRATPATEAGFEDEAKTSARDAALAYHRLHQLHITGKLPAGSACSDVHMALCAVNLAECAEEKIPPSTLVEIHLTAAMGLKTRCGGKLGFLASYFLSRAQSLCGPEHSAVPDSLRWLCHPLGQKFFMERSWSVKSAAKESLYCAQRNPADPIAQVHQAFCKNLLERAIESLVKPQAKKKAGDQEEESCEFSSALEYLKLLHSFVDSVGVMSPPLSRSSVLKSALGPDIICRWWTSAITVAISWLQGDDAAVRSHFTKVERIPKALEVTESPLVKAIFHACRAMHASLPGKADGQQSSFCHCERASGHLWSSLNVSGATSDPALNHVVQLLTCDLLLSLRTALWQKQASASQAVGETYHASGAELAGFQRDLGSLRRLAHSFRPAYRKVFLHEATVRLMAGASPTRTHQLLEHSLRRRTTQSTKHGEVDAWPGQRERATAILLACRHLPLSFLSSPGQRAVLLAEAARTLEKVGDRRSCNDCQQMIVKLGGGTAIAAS

T3: FLAG-Sac1 WT (human) (UniProt Q9NTJ5)
T3 sequence: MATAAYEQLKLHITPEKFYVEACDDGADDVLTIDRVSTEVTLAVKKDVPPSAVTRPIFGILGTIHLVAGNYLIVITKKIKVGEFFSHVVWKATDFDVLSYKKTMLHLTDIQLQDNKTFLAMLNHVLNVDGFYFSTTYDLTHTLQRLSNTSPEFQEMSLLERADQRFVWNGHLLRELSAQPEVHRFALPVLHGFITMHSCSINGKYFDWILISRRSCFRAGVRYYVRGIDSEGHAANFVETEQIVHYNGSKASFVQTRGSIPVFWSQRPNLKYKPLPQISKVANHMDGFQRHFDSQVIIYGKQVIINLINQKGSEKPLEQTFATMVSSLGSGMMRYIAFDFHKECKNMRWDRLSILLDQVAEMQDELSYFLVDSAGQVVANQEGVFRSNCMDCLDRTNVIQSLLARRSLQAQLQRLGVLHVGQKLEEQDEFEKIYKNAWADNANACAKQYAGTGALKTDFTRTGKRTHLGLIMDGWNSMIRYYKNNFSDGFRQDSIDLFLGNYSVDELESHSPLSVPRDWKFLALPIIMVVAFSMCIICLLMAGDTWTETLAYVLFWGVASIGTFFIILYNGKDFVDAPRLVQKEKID

T4: Vc-VAP-A (human) (UniProt Q9P0L0)
T4 sequence: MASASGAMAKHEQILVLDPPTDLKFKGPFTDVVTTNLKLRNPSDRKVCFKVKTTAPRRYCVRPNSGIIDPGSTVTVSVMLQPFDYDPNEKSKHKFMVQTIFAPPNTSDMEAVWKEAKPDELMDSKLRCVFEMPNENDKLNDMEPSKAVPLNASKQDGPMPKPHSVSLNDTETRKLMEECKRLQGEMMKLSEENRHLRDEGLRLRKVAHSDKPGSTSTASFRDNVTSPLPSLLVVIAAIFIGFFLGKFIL

T5: Vc-Sac1 (human) (UniProt Q9NTJ5)
T5 sequence: T3 sequence

B1: Myc-OSBP (protein, UniProt P16258 1-809)
chain: MAATELRGVVGPGPAAIAAPGGGGAGPPVVGGGGGGRGDAGPGSGAASGTVAAAAAGGQGPGAGGVAAAAGPAPTPPAGGSGSSGTGGSGSAREGWLFKWTNYIKGYQRRWFVLSNGLLSYYRSKAEMRHTCRGTINLATANITVEDSCNFIISNGGAQTYHLKASSEVERQRWVTALELAKAKAVKMLAESDESGDEESVSQTDKTELQNTLRTLSSKVEDLSTCNDLIAKHGTALQRSLSELESLKLPAESNEKIKQVNERATLFRITSNAMINACRDFLVLAQTHSKKWQKSLQYERDQRIRLEETLEQLAKQHNHLERAFRGATVLPAHTSGSAGSGKDQCCSGKGDMSDEDDENEFFDAPEIITMPENLGHKRTGSNISGASSDISLDEQYKHQLEETKKEKRTRIPYKPNYSLNLWSIMKNCIGKELSKIPMPVNFNEPLSMLQRLTEDLEYHELLDRAAKCENSLEQLCYVAAFTVSSYSTTVFRTSKPFNPLLGETFELDRLEENGYRSLCEQVSHHPPAAAHHAESKNGWTLRQEIKITSKFRGKYLSIMPLGTIHCIFHATGHHYTWKKVTTTVHNIIVGKLWIDQSGEIDIVNHKTGDKCNLKFVPYSYFSRDVARKVTGEVTDPSGKVHFALLGTWDEKMDCFKVQPVSGENGGDARQRGHEAEESRVMLWKRNPLPKNAENMYYFSELALTLNAWEGGTAPTDSRLRPDQRLMENGRWDEANAEKQRLEEKQRLSRKKREAEAMKATEDGTPYDPYKALWFERKKDPVTKELTHIYRGEYWECKEKQDWNSCPDIF
B2: Vn-OSBP (protein, UniProt P16258 1-809)
chain: B1 chain

Tests used:
FLAG-SREBP1a = molecular target: T1, FLAG-SREBP1a; experiment: co-IP
FLAG-SREBP2 = molecular target: T2, FLAG-SREBP2; experiment: co-IP
FLAG-Sac1 WT (human) = molecular target: T3, FLAG-Sac1 WT (human); experiment: co-IP
Vc-VAP-A (human) = molecular target: T4, Vc-VAP-A (human); experiment: split reporter
Vc-Sac1 (human) = molecular target: T5, Vc-Sac1 (human); experiment: split reporter

| Binder | binding (FLAG-SREBP1a) | binding (FLAG-SREBP2) | binding (FLAG-Sac1 WT (human)) | binding (Vc-VAP-A (human)) | binding (Vc-Sac1 (human)) |
| --- | --- | --- | --- | --- | --- |
| B1 | binds | binds | binds |  |  |
| B2 |  |  |  | binds | binds |
